# Measurements taken from publication PMC7819943, “Rice protein-binding microarrays: a tool to detect cis-acting elements near promoter regions in rice”.
# Chains of the proteins cited; added tags and fusions are not shown.
# UniProt Q0JBA9, entry or part of it: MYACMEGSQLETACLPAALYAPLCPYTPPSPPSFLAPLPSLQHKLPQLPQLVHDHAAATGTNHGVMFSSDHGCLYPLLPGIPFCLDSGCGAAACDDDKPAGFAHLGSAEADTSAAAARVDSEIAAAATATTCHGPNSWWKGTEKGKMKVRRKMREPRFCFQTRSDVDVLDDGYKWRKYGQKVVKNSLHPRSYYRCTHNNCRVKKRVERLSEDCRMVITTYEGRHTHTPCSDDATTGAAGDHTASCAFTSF
# The list shows a part of the results.
# Molecular target: OsWRKY34 (Oryza sativa, UniProt Q0JBA9 1-250)
# Assay: protein-binding microarray (RPBM); PBS, 2% BSA, 51.3 ng/ul salmon testes DNA, 50 uM zinc acetate, 200 nM TF, 25 C, 1 h; high values mean tight binding
# Settings: protein: recombinant; tags: N-terminal polyhistidine and DsRed monomer fusion (pET32a); label: CyDye5-dUTP incorporated in the synthesized complementary strand; 3' TTTTT single-stranded linker to array surface; dsDNA, one strand shown
# In short: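 Transcription factors were made in E. coli BL21-CodonPlus as N-terminal fusions to a polyhistidine tag and DsRed, then purified on Ni–NTA. After primer extension with Cy5-dUTP and blocking with 2% BSA, a custom Agilent array was exposed for 1 h at 25 °C to 200 nM protein in PBS, 2% BSA, salmon testes DNA and 50 µM zinc acetate. Washed arrays were scanned on an Axon 4000B, and the binding signal is per-feature fluorescence intensity in arbitrary units.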
row,Sequence,binding signal
1,TCCAGATCGCACGCATTGACCAGACCACCCAACTCTACTTCGGAGTCACCTAGTGCAG,9490 fluorescence intensity (a.u.)
2,TGAGACAAAGCACATTCTACCCAAGGCCAGTTGCACCAACCGGAGTCACCTAGTGCAG,8080 fluorescence intensity (a.u.)
3,ATTTGCTCTCGTCCATGGGTTAATTTCTGGATTATCACGACGGAGTCACCTAGTGCAG,8100 fluorescence intensity (a.u.)
4,TGATATGGTTGGAGGGATGATGCTTTATAAGTTGGTTCCACGGAGTCACCTAGTGCAG,8600 fluorescence intensity (a.u.)
5,CCCCTCGCCGGTCTGTTTGTGGGCTCTATCTAGCTCGGGGCGGAGTCACCTAGTGCAG,11200 fluorescence intensity (a.u.)
6,GCTACACATATTCCCTCCTTTTTCATCTCCTTCATTGTAACGGAGTCACCTAGTGCAG,8920 fluorescence intensity (a.u.)
7,TTTTAATCCTTTGTTCAGTAACACATTTTGCTAGATCTGTCGGAGTCACCTAGTGCAG,9490 fluorescence intensity (a.u.)
8,GTTAACTTGCTTATATGGTACTAGAAGAAAAACTTAATGGCGGAGTCACCTAGTGCAG,64900 fluorescence intensity (a.u.)
9,CATTTTACCTGTATTGTTTAACTATTTGTCTTATTTAAAACGGAGTCACCTAGTGCAG,8460 fluorescence intensity (a.u.)
10,TGGACATGAGTCCTACTGGCAGCTGCTTCACTGGCTGTGCCGGAGTCACCTAGTGCAG,8810 fluorescence intensity (a.u.)
11,TCCATTTCGGCATCGGCTCCGCCCTCTCTTCTCTTCCGCTCGGAGTCACCTAGTGCAG,9560 fluorescence intensity (a.u.)
12,ATTTTCTTCAGAGTTATTCTTTTCTTTTCTTTTCTTTTCTCGGAGTCACCTAGTGCAG,8680 fluorescence intensity (a.u.)
13,GCAACCACAACCACCAACGACGCCGATCGATCGAGCCAACCGGAGTCACCTAGTGCAG,9000 fluorescence intensity (a.u.)
14,CAGAACTTGTCCTTTTTTTTGCTTTGATATGTTCAGAAGACGGAGTCACCTAGTGCAG,8730 fluorescence intensity (a.u.)
15,CTCCTTATTACAGTATGCATGATCTACTACATGAGTTAGCCGGAGTCACCTAGTGCAG,9430 fluorescence intensity (a.u.)
16,CTAAAAATATTTATATTTTGGGAGGGAGGGAGTATCAATCCGGAGTCACCTAGTGCAG,8550 fluorescence intensity (a.u.)
17,TCATACCTACCATGGACTCATTTTATTTGAGCAACCTTTCCGGAGTCACCTAGTGCAG,8720 fluorescence intensity (a.u.)
18,CGTTTGCACCAGTGTATGTCCTGCGGCCGCCTCAATCGTTCGGAGTCACCTAGTGCAG,8860 fluorescence intensity (a.u.)
19,CTATTTTTTACCATCTACTACACGGCTTTTATTTCGTCATCGGAGTCACCTAGTGCAG,9370 fluorescence intensity (a.u.)
20,AGTGTCTGTTTCCATGTTGCTTCTTGTTAATGTAGGGTGACGGAGTCACCTAGTGCAG,15700 fluorescence intensity (a.u.)
21,CTCGTGTTCTTCGACGATTTCGTGGTCTCTAATTTGTTTTCGGAGTCACCTAGTGCAG,9680 fluorescence intensity (a.u.)
22,GCTCGATCTCCGACGTCATGCGCCGCTCGCTGCCCGTCGACGGAGTCACCTAGTGCAG,8710 fluorescence intensity (a.u.)
23,TGCTTGTGGTTTGTATGGAGTTTGGGTGAAGTGTCACGTACGGAGTCACCTAGTGCAG,9660 fluorescence intensity (a.u.)
24,ACGCGCCACCGCCACCGCCACCGCCATTGTGGGCCCTCGACGGAGTCACCTAGTGCAG,9470 fluorescence intensity (a.u.)
25,CTGTCGAAATTAATTACTCATCTTCATTCCAACTTTTTTTCGGAGTCACCTAGTGCAG,8590 fluorescence intensity (a.u.)
26,CCTTGACACTTAAAGCTGCAATTGAATCATTGCTTATGGACGGAGTCACCTAGTGCAG,10100 fluorescence intensity (a.u.)
27,GCCGCCACTTTAACCAAGCCTCCTTGATCACACTCCTAATCGGAGTCACCTAGTGCAG,8760 fluorescence intensity (a.u.)

row,Sequence,binding signal
1,ATAACTATTTTCAATTTAATTTGTTCTTTTTGTTGCAACTCGGAGTCACCTAGTGCAG,9170 fluorescence intensity (a.u.)
2,GGTGCAGTTAGTTGTGCATACCCGTCTCGTTCAGTTTCATCGGAGTCACCTAGTGCAG,11200 fluorescence intensity (a.u.)
3,GAAGGTTGCTGTTGCTTGTTGTTGGTAGTGTCTTGTGTGCCGGAGTCACCTAGTGCAG,9090 fluorescence intensity (a.u.)
4,AAGCCTGAAACCACTAGCACTTTGTATCAGTATCACCGTTCGGAGTCACCTAGTGCAG,9270 fluorescence intensity (a.u.)
5,GTTAGACCATCGGTTAGACAGGCGTACCTCTGTTTGGATCCGGAGTCACCTAGTGCAG,8240 fluorescence intensity (a.u.)
6,TCTTATCCATACCCTGGCCCACCTCGCCCCACGCCGCGTCCGGAGTCACCTAGTGCAG,9650 fluorescence intensity (a.u.)
7,TTTTTTTATTTTTTTTGAAATATTTTTTGTTGGGTTTTTTCGGAGTCACCTAGTGCAG,13100 fluorescence intensity (a.u.)
8,TGCTAGTGCTGTTCACTGTTTATACTTGTCGTACTCCAAACGGAGTCACCTAGTGCAG,9950 fluorescence intensity (a.u.)
9,TGATATGATCTCTAACTTTGCTTCTGTTTTGACTCTTTAGCGGAGTCACCTAGTGCAG,8220 fluorescence intensity (a.u.)
10,AGCTCAGTCCACCCACCGCTCTCACTTCCATACGCGGCCCCGGAGTCACCTAGTGCAG,8870 fluorescence intensity (a.u.)
11,TGTTTGCTTATTACTATTTTTTTTGGGGCGGGAAATTAAACGGAGTCACCTAGTGCAG,14100 fluorescence intensity (a.u.)
12,AATAGATTTTGTTGGCAGCTCATGAGTAGTAAAATTATTTCGGAGTCACCTAGTGCAG,8070 fluorescence intensity (a.u.)
13,TGTCATGCTGATCCTACTCCTCACTTGCAAAAATCCTGCGCGGAGTCACCTAGTGCAG,8660 fluorescence intensity (a.u.)
14,TCTGCTGCGCGGCTGCTCGTTACGTTGGGTGTTATTTGATCGGAGTCACCTAGTGCAG,8410 fluorescence intensity (a.u.)
15,TAATACCCCACTTATTTTGTCTTTTACCTATAAACTTTATCGGAGTCACCTAGTGCAG,8470 fluorescence intensity (a.u.)
16,GTATTTTCGATTGTTTACACTATAATTAGACTGTTTTATACGGAGTCACCTAGTGCAG,8600 fluorescence intensity (a.u.)
17,CTCATTCTGCGTGCCCTTACTTAATCCTCATCCTCATTACCGGAGTCACCTAGTGCAG,13600 fluorescence intensity (a.u.)
18,CCCGCCCTGCTCCCGTGCTGCCACCAACAACGCGATCACCCGGAGTCACCTAGTGCAG,8500 fluorescence intensity (a.u.)
19,TAATCACGAGACCCGCACTCTTTTTTTGCGTCGCTCGAGCCGGAGTCACCTAGTGCAG,9650 fluorescence intensity (a.u.)
20,TACTGGATCTCTGCTTCTGACCAAAATGTTCCGCATTGAACGGAGTCACCTAGTGCAG,8560 fluorescence intensity (a.u.)
21,CTCGTTCTCCACCTTATCACCCAACCCGTCGTGCCAATCCCGGAGTCACCTAGTGCAG,9960 fluorescence intensity (a.u.)
22,TTTGCACTATTCACGTTCAACGTTTGATCGTTCGTTTTATCGGAGTCACCTAGTGCAG,9750 fluorescence intensity (a.u.)
23,CCAGTAGTACGCATATATCCATCGAGATTAATCGAAAACTCGGAGTCACCTAGTGCAG,8330 fluorescence intensity (a.u.)
24,GAGTAAATGCTATAGTTACATATCCGTTTGTTTATTTGTGCGGAGTCACCTAGTGCAG,8130 fluorescence intensity (a.u.)
25,GCATTTTGTTTTCCTCCATTTGGTGAGCTTCCTTTTCATCCGGAGTCACCTAGTGCAG,10800 fluorescence intensity (a.u.)
26,CCCTCCGTTCACCTGTGGTAATCTTAGCAGCGTGTCGTCTCGGAGTCACCTAGTGCAG,8200 fluorescence intensity (a.u.)
27,CTATCTCATTGTTTTACACGTGGCTGCTACTTCTCCTGCTCGGAGTCACCTAGTGCAG,14700 fluorescence intensity (a.u.)

# Twelve entries from above, with bars between the fields:
row | Sequence | binding signal
3 | GAAGGTTGCTGTTGCTTGTTGTTGGTAGTGTCTTGTGTGCCGGAGTCACCTAGTGCAG | 9090 fluorescence intensity (a.u.)
4 | AAGCCTGAAACCACTAGCACTTTGTATCAGTATCACCGTTCGGAGTCACCTAGTGCAG | 9270 fluorescence intensity (a.u.)
5 | GTTAGACCATCGGTTAGACAGGCGTACCTCTGTTTGGATCCGGAGTCACCTAGTGCAG | 8240 fluorescence intensity (a.u.)
6 | TCTTATCCATACCCTGGCCCACCTCGCCCCACGCCGCGTCCGGAGTCACCTAGTGCAG | 9650 fluorescence intensity (a.u.)
7 | TTTTTTTATTTTTTTTGAAATATTTTTTGTTGGGTTTTTTCGGAGTCACCTAGTGCAG | 13100 fluorescence intensity (a.u.)
10 | AGCTCAGTCCACCCACCGCTCTCACTTCCATACGCGGCCCCGGAGTCACCTAGTGCAG | 8870 fluorescence intensity (a.u.)
12 | AATAGATTTTGTTGGCAGCTCATGAGTAGTAAAATTATTTCGGAGTCACCTAGTGCAG | 8070 fluorescence intensity (a.u.)
16 | GTATTTTCGATTGTTTACACTATAATTAGACTGTTTTATACGGAGTCACCTAGTGCAG | 8600 fluorescence intensity (a.u.)
19 | TAATCACGAGACCCGCACTCTTTTTTTGCGTCGCTCGAGCCGGAGTCACCTAGTGCAG | 9650 fluorescence intensity (a.u.)
20 | TACTGGATCTCTGCTTCTGACCAAAATGTTCCGCATTGAACGGAGTCACCTAGTGCAG | 8560 fluorescence intensity (a.u.)
21 | CTCGTTCTCCACCTTATCACCCAACCCGTCGTGCCAATCCCGGAGTCACCTAGTGCAG | 9960 fluorescence intensity (a.u.)
22 | TTTGCACTATTCACGTTCAACGTTTGATCGTTCGTTTTATCGGAGTCACCTAGTGCAG | 9750 fluorescence intensity (a.u.)
